The campaign covered roughly 400,000 compounds. About 13,000 (3.2%) were called active. The shares of active, inactive and inconclusive entries below differ from those in the screen. The call rests on the fitted dose curve; in most records, active means well fitted cell-killing curve with a large enough effect; inconclusive means small, poorly fitted or top-dose-only effect, or effect the other way; inactive means flat fitted curve, though single readings scatter. Potencies of inconclusive entries are doubtful fits and often do not repeat.
assay: qHTS assay for MDR1-selective chemotherapeutics: Primary screen using the drug-selected MDR subline cells KB-V1; conditions: KB-V1 MDR cells viability, CellTiter-Glo, 72 h; activity change, negative = cytotoxicity: at 46.1 µM (top of the series); further: nearly all actives have a fitted effect of over 60% in size
Summary of the method: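 Cytotoxicity via CellTiter-Glo luminescence after 72 h compound exposure at 37 degrees C. Cells: drug-selected KB-V1 line, DMEM phenol-red free plus 10% FBS. Compounds tested at multiple concentrations; normalized data fitted to concentration-effect curves.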
On the % scale 0 is the no-effect control and ±100 the full control effect; potency means the concentration at half of the fitted maximal effect.

Structure (SMILES)	Potency	activity change, negative = cytotoxicity
Cc1ccc(-n2nnnc2SCc2nnc(-c3ccccc3Br)o2)c(C)c1	active: 10.3 µM	
O=Cc1c(F)cccc1N1CCCC1	inconclusive: 20.6 µM [rising, single point]	
CCCCNC(=S)N(C)N=C1CCC(c2ccccc2)CC1 (stereo unspecified)	inconclusive: 29.1 µM [cytotoxic, single point]	
OCCN(Cc1ccccc1)C(=S)Nc1ccc(Cl)cc1Cl	inconclusive: 18.4 µM [cytotoxic, single point]	
O=[N+]([O-])c1ccc(O)c(C2=NNC(c3ccccc3F)C2)c1 (stereo unspecified)	inconclusive: 16.4 µM [cytotoxic, single point]	
CCOC(=O)Cn1c(=N)n(Cc2ccc(C(C)(C)C)cc2)c2ccccc21	inactive	
CCN(CC)c1ccc(C(=O)OCC(=O)N(C)Cc2ccccc2)cc1	inconclusive: 18.4 µM [cytotoxic, single point]	
COc1ccc(NC(=O)CC2C(=O)N(c3ccccc3)C(=O)N2CCc2cccs2)cc1 (stereo unspecified)	inactive	
Cc1cccc(CSCCNC(=O)Nc2ccccc2)c1	inactive	
CCS(=O)(=O)C1C(=O)N(C)C(S(=O)(=O)CC)C(=O)N1C (stereo unspecified)	inconclusive: 23.1 µM [rising, single point]	
COc1ccc(/C=C/C(=O)CC(O)(c2ccccc2)C(F)(F)F)cc1 (stereo unspecified)	inconclusive: 29.1 µM [cytotoxic, single point]	
CCc1noc(C)c1C(=O)Oc1ccc(N(C)S(=O)(=O)c2ccc(C)cc2)cc1	inconclusive: 20.6 µM [cytotoxic, single point]	
O=C(NCC1CCCO1)c1cccc(Oc2c(Cl)cccc2[N+](=O)[O-])c1 (stereo unspecified)	inconclusive: 29.1 µM [cytotoxic, single point]	
CCc1ccc(CN(Cc2cccnc2)C(=O)/C=C/c2ccc(OC)cc2)cc1	inconclusive: 9.2 µM [cytotoxic, partial curve]	
COc1ccccc1C1NC(=O)c2n[nH]c(-c3cccs3)c21 (stereo unspecified)	inactive	
CCOC(=O)Cc1ccc(Nc2nc(NC)nc3ccsc23)cc1	inconclusive: 2.31 µM [cytotoxic, full curve]	
COc1cc(C2CC(=O)N(Cc3cccc(F)c3)c3ccccc3S2)cc(OC)c1OC (stereo unspecified)	active: 16.4 µM	
O=C(NCc1ccco1)c1ccc(-c2ccc(Cl)cc2)o1	inactive	
CCSc1nc2c(c(=O)[nH]c(=O)n2C)n1Cc1ccc(Cl)cc1	active: 7.31 µM	
Cc1cn([C@H]2C[C@H](O)[C@@H](CNCc3ccc(F)c(N4CCOCC4)c3)O2)c(=O)[nH]c1=O	inconclusive: 29.1 µM [rising, single point]	
COc1ccc(CCN2CC(C(=O)NCc3ccon3)CCC2=O)cc1 (stereo unspecified)	inconclusive: 23.1 µM [rising, single point]	
COc1cc(NC(=O)c2cccs2)c(OC)cc1NC(=O)Cc1ccccc1	inconclusive: 4.11 µM [cytotoxic, full curve]	
C=CCn1c(SCC(=O)Nc2sccc2C(N)=O)nc2ccc(Cl)cc2c1=O	inconclusive: 11.6 µM [cytotoxic, partial curve, poor fit]	
COc1ccc2[nH]cc(CCN=C(NC(=O)c3ccccc3F)Nc3nc(C)cc(C)n3)c2c1	inconclusive: 9.2 µM [cytotoxic, partial curve]	

Structure (SMILES)	Potency	activity change, negative = cytotoxicity
CN(Cc1ccno1)Cc1cn(Cc2ccccc2)nc1-c1ccc2c(c1)OCO2	inconclusive: 2.91 µM [cytotoxic, full curve]	
Cc1ccccc1NC(=O)Cn1c(=O)n(CCCC(=O)NCc2ccc3c(c2)OCO3)c(=O)c2ccccc21	inconclusive: 29.1 µM [rising, partial curve, poor fit]	
COc1ccccc1C1C2=C(N=C3SCC(=O)N31)c1ccccc1CC2 (stereo unspecified)	inconclusive: 13 µM [cytotoxic, partial curve, poor fit]	
COC(=O)c1ccc(-c2nc(O)c(C)s2)cc1	inactive	
CCN(CC)CCCNc1nc2ccccc2c2[nH]c3ccc(OC)cc3c12	active: 16.4 µM	
COc1ccc(C(=O)Nc2cccc(/C=C(/CCC(=O)O)c3nc4ccccc4s3)c2)cc1	inconclusive: 20.6 µM [rising, single point]	
Cn1c2ccccc2c2ncn(Cc3ccco3)c(=O)c21	inconclusive: 6.51 µM [cytotoxic, partial curve]	
COc1ccc(N(C(=O)CNC(=O)c2ccco2)C(C(=O)NC2CCCCC2)c2cccnc2)cc1 (stereo unspecified)	inconclusive: 32.6 µM [rising, partial curve, poor fit]	
Cc1cc(C(=O)Nc2ccc(S(=O)(=O)N3CCCC3)cc2)cs1	inconclusive: 35.5 µM [cytotoxic, single point]	
COc1ccccc1NC(=O)C1CCN(S(=O)(=O)c2cccc3nonc23)CC1	inactive	
O=[N+]([O-])c1cc(/C=N/n2cnnc2)ccc1N1CCCC1	active: 2.59 µM	
CN(C)N1C(N)=C(C#N)C(c2ccsc2)C2=C1CC(C)(C)CC2=O (stereo unspecified)	inconclusive: 8.2 µM [cytotoxic, partial curve]	
CCc1c(O)nc(SCC(=O)Nc2ccccc2OC)n(-c2ccccc2C)c1=O	inconclusive: 20.6 µM [rising, single point]	
Cc1ccccc1N(CC(=O)NCc1ccccc1)C(=O)CCC(=O)Nc1nccs1	inactive	
Cc1cccc(N2C(=O)C(Oc3ccc(Cl)cc3Cl)C2C=O)c1C (stereo unspecified)	inconclusive: 18.4 µM [cytotoxic, single point]	
O=C(NCC(=O)N1CC=C(c2ccccc2)CC1)c1ccc(OC(F)F)cc1	active: 13 µM	
COc1cccc(NCc2cccn2-c2nnc(N3CCC(C)CC3)s2)c1		inconclusive: 9.9%
Cc1c(Cl)cccc1NC(=O)CNc1cccc(S(=O)(=O)N(C)C)c1	active: 16.4 µM	
CCCCSc1nnc(CNC(=O)C23CC4CC(CC(C4)C2)C3)n1Cc1ccccc1	active: 2.59 µM	
Cc1ccc(C)c(Cn2nnc3c(=O)[nH]c(C4CCN(S(=O)(=O)c5ccc(S(=O)(=O)NC6CC6)cc5)CC4)nc32)c1	inconclusive: 25.9 µM [rising, partial curve, poor fit]	
O=C(O)[C@@H]1CCCN1C(=O)CCc1c[nH]c2ccccc12		inconclusive: 87.4%
CC1(C)CC(NC(=O)c2ccc(Cl)c(Cl)c2)CC(C)(C)N1	inactive	
CSc1ccccc1C(=O)Nc1ncc(C)s1	inactive	
CCC(=O)NC(Cc1ccccc1)c1nc2ccccc2[nH]1 (stereo unspecified)	inactive	

Structure (SMILES)	Potency	activity change, negative = cytotoxicity
COc1ccc(C2/C(=C(/O)c3ccc(C)cc3)C(=O)C(=O)N2c2ccccn2)cc1OC (stereo unspecified)	inconclusive: 18.4 µM [cytotoxic, partial curve, poor fit]	
NS(=O)(=O)c1ccc(N=Nc2cc3ccccc3c(C(=O)O)c2O)cc1	inactive	
COc1ccc(C(=O)Nc2cccc(C(=O)OCc3cc(=O)n4nc(C5CC5)sc4n3)c2)cc1	inconclusive: 29.1 µM [rising, single point]	
N#CCO/N=C(\c1ccccc1)c1ccncc1	inconclusive: 2.82 µM [rising, full curve, poor fit]	
Cc1ccc(-n2c(=O)c3cccnc3n2CC(=O)NCc2ccc(Cl)cc2)cc1	inactive	
O=C(Nc1ccccn1)c1ccc(COc2ccccc2Cl)o1	inconclusive: 25.9 µM [cytotoxic, single point]	
CC(O)CNc1nc2c(c(=O)n(C)c(=O)n2C)n1C/C=C/c1ccccc1 (stereo unspecified)	inconclusive: 29.1 µM [cytotoxic, single point]	
O=C(NCc1ccco1)c1cnn2cccnc12	inconclusive: 29.1 µM [rising, single point]	
O=C(O)c1ccc(/C=C/C(=O)c2ccc3c(c2)OCCCO3)cc1	inconclusive: 29.1 µM [cytotoxic, single point]	
Cc1ccc2oc3c(c(=O)c2c1)C(c1ccc(O)cc1)N(CCCN(C)C)C3=O (stereo unspecified)	inconclusive: 20.6 µM [rising, single point]	
CCOc1ccc(N=Cc2ccc([N+](=O)[O-])cc2)c(O)c1	inconclusive: 25.9 µM [cytotoxic, single point]	
CC1N=C2c3ccccc3N=C(SCC(=O)NCCc3ccc(Cl)cc3)N2C1=O (stereo unspecified)	inactive	
Cc1ccccc1Cn1nc(C)c(NC(=O)c2sc3ccccc3c2Cl)c1C	active: 13 µM	
CCCCN(c1ccccc1)S(=O)(=O)c1cccc2cccnc12	inconclusive: 29.1 µM [rising, single point]	
CSc1ccc(C(=O)C2CCCN(Cc3cccc4nccnc34)C2)cc1 (stereo unspecified)	inactive	
CN1CCN(c2ccc(S(=O)(=O)N3CCCCC3)cc2NC(=O)c2ccc(F)cc2F)CC1	inconclusive: 3.26 µM [cytotoxic, partial curve, poor fit]	
Cc1ccc(-c2cc(C(=O)N3CCOCC3)c3ccccc3n2)cc1	inactive	
COc1cccc2c(=O)cc(C)n(CC(=O)Nc3ccc(C)c(C)c3)c12	inconclusive: 7.31 µM [cytotoxic, partial curve]	
CCN(CC(=O)Nc1c(F)cccc1F)C(=O)c1cccc(S(=O)(=O)N(C)c2ccccc2)c1	inactive	
CCC(=O)Nc1c2c(nn1-c1cccc(Cl)c1)CS(=O)(=O)C2	inconclusive: 18.4 µM [rising, single point]	
O=C(c1ccncc1)N1N=C(C2CCCCC2)CC1(O)C(F)(F)F (stereo unspecified)	inactive	
COC(=O)c1c(NC(=O)CSc2nc(-c3ccco3)cc(C(F)(F)F)n2)sc2c1CCCC2	inconclusive: 25.9 µM [cytotoxic, single point]	
COc1ccc(-n2nc(C(=O)NCC(=O)NC(C)C)c3ccccc3c2=O)cc1	inactive	

Three structures out of the list, arranged by heavy-atom count, ascending:
Structure (SMILES)	Potency	activity change, negative = cytotoxicity
O=C(NCc1ccco1)c1cnn2cccnc12	inconclusive: 29.1 µM [rising, single point]	
Cc1ccc(-c2cc(C(=O)N3CCOCC3)c3ccccc3n2)cc1	inactive	
CN1CCN(c2ccc(S(=O)(=O)N3CCCCC3)cc2NC(=O)c2ccc(F)cc2F)CC1	inconclusive: 3.26 µM [cytotoxic, partial curve, poor fit]	
